Results from PMC10093951.
No constants are given. Whether binding was seen depends on the method and setting. Binding seen in cells or lysates may run through a third protein. Some results given as binding are weak or reduced against the parent protein; the word gives no strength.

Sequences of proteins named here, by UniProt entry; tags and fusion partners are left off.
UniProt P30536: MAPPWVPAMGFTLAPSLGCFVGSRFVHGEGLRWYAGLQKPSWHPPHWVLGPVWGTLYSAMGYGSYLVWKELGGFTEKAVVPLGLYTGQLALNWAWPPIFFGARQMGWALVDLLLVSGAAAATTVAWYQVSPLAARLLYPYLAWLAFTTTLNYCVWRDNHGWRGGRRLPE
UniProt Q5BJF2: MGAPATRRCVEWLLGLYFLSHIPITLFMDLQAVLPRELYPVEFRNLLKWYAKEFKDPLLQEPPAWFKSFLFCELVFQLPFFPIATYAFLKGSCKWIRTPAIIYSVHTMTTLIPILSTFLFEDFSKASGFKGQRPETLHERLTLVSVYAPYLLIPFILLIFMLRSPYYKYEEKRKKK

Tests used:
[1] = target: translocator protein (TSPO) (human (endogenous in MCF7 and MIA PaCa-2)) (UniProt P30536); test: co-IP; MIA PaCa-2 (MP) cell lysates in low-stringency lysis buffer (100 mM NaCl, 0.5% NP-40, 50 mM HEPES pH 7.5); anti-TSPO antibody with protein A/G PLUS agarose, 4 °C 2 h; Western blot with anti-TMEM97 or anti-PGRMC1; IgG as negative control; cells untreated or treated with 20S-OHC (24 h), 10 μM siramesine oxalate or FA10 (2 h)
[2] = target: translocator protein (TSPO) (human (endogenous in MCF7 and MIA PaCa-2)) (UniProt P30536); test: proximity ligation; Duolink PLA in fixed (3.6% paraformaldehyde), permeabilised MIA PaCa-2 (MP) cells; primary antibodies 1:100 overnight at 4 °C; PGRMC1 detected by anti-HA on exogenous PGRMC1-HA; controls: TSPO attenuation, no primary antibodies
[3] = target: translocator protein (TSPO) (human (endogenous in MCF7 and MIA PaCa-2)) (UniProt P30536); test: co-IP; MCF7 and shTMEM97MCF7 (TMEM97 knock-down) cell lysates in low-stringency lysis buffer (100 mM NaCl, 0.5% NP-40, 50 mM HEPES pH 7.5); anti-TSPO antibody with protein A/G PLUS agarose, 4 °C 2 h; Western blot with anti-TMEM97 or anti-PGRMC1; IgG as negative control

Measured: binding

transmembrane protein 97 (TMEM97) (from UniProt Q5BJF2 1-176)
binds: all assays above
